Reference: patent EP2958933B1, “CROSSLINKED PEPTIDE HYDROGELS” (Agency for Science, Technology and Research, priority 2013, dated 2018)

Test: Purification of gels by regular water change (removal of unreacted H2O2 and residual acid)
Conditions: for H2O2 removed: gel cast in 48-well plate with 0.06% H2O2, water replaced regularly

LIVAGKC [LK6C, cross-linkable peptide, LK6 modified with a cysteine residue at the C-terminus; forms hydrogels]
H2O2 removed (after 4 hrs): > 96% | H2O2 removed (after 7 hrs): > 99% | residual acid removed (water replaced regularly, after 8 hrs): > 85%
